The list is a part of this screen's results and no random one: its compounds were picked by chemical class. Other doses and runs of a compound may be missing. T/C: endpoint of the treated group in % of that of the vehicle group. Some T/C values are marked as having no survivor count here; that says nothing about deaths at the dose. Schedule codes are those of the source, taken here to give the interval after Q, in days (D) or hours (H), and the number of doses after X. Some schedules carry Z or #; the key to these is not given. Some entries were tested several times; their values stand side by side, smallest first.
System: Swiss mice, Sarcoma 180 sc, mean tumor weight T/C
Experiment: NCI In Vivo Anticancer Drug Screen. Data for tumor model Sarcoma 180 (subcutaneous) in Swiss mice
Settings: T/C endpoint: mean tumor weight, schedule: Q#A X014 (ip), evaluation day not shown, higher T/C = larger tumour
Procedure: The antitumor activity of compounds was measured in mice bearing transplantable tumors. Survival or tumor size were measured and the results are expressed as the measurement made in the treated group (T) divided by the measurement made in the vehicle treated control group (C). The tumor model used in this assay is Sarcoma 180 (subcutaneous) in Swiss mice

Compound: O=C(O)C(=O)Cc1ccc(N(CCCl)CCCl)cc1
- T/C (dose: 6.5 mg/kg/injection, vehicle: methylcellulose (MC)): 36 [survivor count not shown] and 77 % of control [survivor count not shown]
- T/C (dose: 10.0 mg/kg/injection, vehicle: methylcellulose (MC)): 12 [survivor count not shown] and 15 % of control [survivor count not shown]
- T/C (dose: 15.0 mg/kg/injection, vehicle: methylcellulose (MC)): 7 % of control [survivor count not shown]

Compound: NC(Cc1ccccc1N(CCCl)CCCl)C(=O)O (stereo not given)
- T/C (dose: 0.12 mg/kg/injection, vehicle: methylcellulose (MC)): 77 % of control [survivor count not shown]
- T/C (dose: 0.25 mg/kg/injection, vehicle: methylcellulose (MC)): 54 % of control [survivor count not shown]
- T/C (dose: 0.5 mg/kg/injection, vehicle: methylcellulose (MC)): 74 % of control [survivor count not shown]
- T/C (dose: 1.0 mg/kg/injection, vehicle: methylcellulose (MC)): 36 % of control [survivor count not shown]

Compound: ClCCNC(CCl)CCl
- T/C (dose: 20.0 mg/kg/injection, vehicle: carboxymethylcellulose (CMC)): 50 % of control [survivor count not shown]
- T/C (dose: 30.0 mg/kg/injection, vehicle: carboxymethylcellulose (CMC)): 43 % of control [survivor count not shown]
- T/C (dose: 47.5 mg/kg/injection, vehicle: carboxymethylcellulose (CMC)): 39 % of control [survivor count not shown]
- T/C (dose: 70.0 mg/kg/injection, vehicle: carboxymethylcellulose (CMC)): 29 % of control [survivor count not shown]

Compound: O[C@@H](CNCCCl)[C@@H](O)CNCCCl
- T/C (dose: 3.5 mg/kg/injection, vehicle: saline): 68 % of control [survivor count not shown]
- T/C (dose: 5.5 mg/kg/injection, vehicle: saline): 50 % of control [survivor count not shown]
- T/C (dose: 8.12 mg/kg/injection, vehicle: saline): 43 % of control [survivor count not shown]
- T/C (dose: 12.5 mg/kg/injection, vehicle: saline): 34 % of control [survivor count not shown]

— PubChem BioAssay AID342 (DTP/NCI, 2004)
